# Literature values as cited in US20180015074A1, “USE OF MTOR INHIBITORS TO PREVENT AND REGRESS EDHESIONS AND FIBROSIS” (THE BOARD OF REGENTS OF THE UNIVERSITY OF TEXAS SYSTEM, priority 2015, published 2018).
# At least one structure is not confirmed: it was looked up by name or label, or the drawing left a doubt.
# Tested on: collagenase
# Details: cited from earlier work
structure (smiles),measurement,value
"CO[C@H]1C[C@@H]2CC[C@@H](C)[C@@](O)(O2)C(=O)C(=O)N2CCCC[C@H]2C(=O)O[C@H]([C@H](C)C[C@@H]2CC[C@@H](O)[C@H](OC)C2)CC(=O)[C@H](C)/C=C(\C)[C@@H](O)[C@@H](OC)C(=O)[C@H](C)C[C@H](C)/C=C/C=C/C=C/1C [rapamycin, (3S,6R,7E,9R,10R,12R,14S,15E,17E,19E,21S,23S,26R,27R,34aS)-9,10,12,13,14,-21,22,23,24,25,26,27,32,33,34,34a-hexadecahydro-9,27-dihydroxy-3-[(1R)-2-[-(1S,3R,4R)-4-hydroxy-3-methoxycyclohexyl]-1-methylethyl]-10,21-dimethoxy-6,8,12,14,20,26-hexamethyl-23,27-epoxy-3H-pyrido[2,1-c][1,4]oxaazacyclohent-ria-contine-1,5,11,28,29(4H,6H,31H)-pentone]",collagenase,increases collagenase
